US20230330120A1, “COMPOSITION FOR PREVENTING HAIR LOSS OR PROMOTING HAIR REGROWTH” (LG HOUSEHOLD & HEALTH CARE LTD., priority 2020, published 2023)
Some of these results come from one statement about several compounds together.

Tested on: Wnt/β-catenin promoter
Test: Wnt reporter luciferase assay in Wnt reporter HEK293A cells
Assay type: cell-based
Conditions: treated at 200, 20, 2 or 0.2 μg/mL, DMSO negative control, FIG. 1-3

| SMILES | Wnt/β-catenin signaling amplification as compared to the untreated negative control group [fold] |
| --- | --- |
| CC(C)=CCC[C@@H](C)[C@H]1CC[C@@]2(C)C3=C(CC[C@]12C)[C@@]1(C)CC[C@H](O)C(C)(C)[C@@H]1CC3 [Lanosterol] | ≥ 2 |
| COc1ccc(-c2cc(=O)c3c(O)c(OC)c(O)c(OC)c3o2)cc1 [Lysionotin] | ≥ 2 |
| COc1cc2c[n+](C)c3c4cc5c(cc4ccc3c2cc1OC)OCO5 [Nitidine] | ≥ 2 |
| C[C@@H]1CC[C@]2(C(=O)O)CC[C@]3(C)C(=CC[C@@H]4[C@@]5(C)CC[C@H](O)[C@@](C)(CO)[C@@H]5CC[C@]43C)[C@@H]2[C@]1(C)O [Rotundic acid] | ≥ 2 |
| COC(=O)C1=CO[C@@H](O[C@@H]2O[C@H](CO)[C@@H](O)[C@H](O)[C@H]2O)[C@@H]2[C@@]3(C)O[C@H]3[C@@H](O)[C@]12O [Sesamoside] | ≥ 2 |
| C/C=C1/[C@H](O[C@@H]2O[C@H](CO)[C@@H](O)[C@H](O)[C@H]2O)OC=C(C(=O)OC)[C@H]1CC(=O)OC[C@H]1O[C@@H](OCCc2ccc(O)cc2)[C@H](O)[C@@H](O)[C@@H]1O [Specnuezhenide] | ≥ 2 |
| C=C1[C@H](OC(=O)/C=C(\C)CC)C[C@@H](C(C)C)[C@@H]2[C@@H]([C@H](C)OC(C)=O)C(=O)C[C@@H]12 [Tussilagone] | ≥ 2 |
